Assay results reported in PubChem BioAssay AID256 (DTP/NCI, 2004).
The list does not hold the whole screen: it gathers tests that were run many times, whatever their T/C, doses with no T/C, and many T/C values between a quarter and a half above the control. Further doses and runs are listed elsewhere. T/C gives the treated animals as a percentage of the vehicle group. Some entries give survivors of the animals treated and no T/C: the source files T/C as zero there, which appears to mark a toxic dose or a test without result, not a measured value. Some survivor counts are full or nearly so, which does not show that the dose was tolerated: the source hardly ever lists a survival T/C far under the control, and the zero likely stands for such cases as well. Survivors were counted at the toxicity check, usually on the fifth day, unless a day is given; later deaths do not show. Schedules are NCI's codes, taken here to give the interval after Q, in days (D) or hours (H), and the number of doses after X. Some doses were run more than once; the results are listed from low to high. Some molecules as drawn cover several salts, stereoisomers or complexes of the source; a dose is that of the sample tested. Where survival is the endpoint, this PubChem deposit counts one and a half times the control or more as active, and values a quarter to a half above the control carry no call in these data; other NCI protocols may use other cut-offs. Some T/C values are followed by the survivors on the day toxicity was checked, most often the fifth; without a count, all were alive then.

Tested on: CD2F1 mice, L1210 leukemia ip, survival T/C
Assay: NCI In Vivo Anticancer Drug Screen. Data for tumor model L1210 Leukemia (intraperitoneal) in CD2F1 (CDF1) mice
Conditions: higher T/C = longer survival
Summary of the method: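 Antitumor effect is scored in animals hosting a serially transplanted tumor. Values compare compound-dosed animals against vehicle-only controls as a simple quotient.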

[1] = T/C endpoint: mean survival time, dose: 100.0 mg/kg/injection, schedule: Q01DX009 (ip), vehicle: saline
[2] = T/C endpoint: mean survival time, dose: 300.0 mg/kg/injection, schedule: Q01DX001 (ip), vehicle: saline
[3] = T/C endpoint: mean survival time, dose: 100.0 mg/kg/injection, schedule: Q01DX009 (ip), vehicle: saline with Tween-80
[4] = T/C endpoint: mean survival time, dose: 400.0 mg/kg/injection, schedule: Q01DX009 (ip), vehicle: saline with Tween-80
[5] = T/C endpoint: mean survival time, dose: 200.0 mg/kg/injection, schedule: Q01DX009 (ip), vehicle: saline with Tween-80
[6] = T/C endpoint: mean survival time, dose: 400.0 mg/kg/injection, schedule: Q04DX003 (ip), vehicle: saline with Tween-80
[7] = T/C endpoint: mean survival time, dose: 400.0 mg/kg/injection, schedule: Q04DX002 (ip), vehicle: saline with Tween-80

With `N/C(=N/O)c1cn(C2OC(CO)C(O)C2O)c2nc[nH]c(=O)c12` (configuration not stated) the survivor count (T/C endpoint: mean survival time, dose: 67.0 mg/kg/injection, schedule: Q01DX009 (ip), vehicle: saline) was 5 of 6, the survivor count [1] was 0 of 6 and the T/C (T/C endpoint: mean survival time, dose: 150.0 mg/kg/injection, schedule: Q01DX001 (ip), vehicle: water) was 128 % of control. The survivor count (T/C endpoint: mean survival time, dose: 150.0 mg/kg/injection, schedule: Q01DX009 (ip), vehicle: saline) was 0 of 6, the survivor count (T/C endpoint: mean survival time, dose: 225.0 mg/kg/injection, schedule: Q01DX009 (ip), vehicle: saline) was 0 of 6 and the survivor count (T/C endpoint: mean survival time, dose: 300.0 mg/kg/injection, schedule: Q01DX001 (ip), vehicle: water) was 0 of 6.

`Cc1c(C)c(O)c2c(c1C)C(C)C(=O)OC2=O` (configuration not stated) was tested, and the survivor count (T/C endpoint: mean survival time, dose: 75.0 mg/kg/injection, schedule: Q01DX001 (ip), vehicle: saline) was 3 of 6, the survivor count (T/C endpoint: mean survival time, dose: 150.0 mg/kg/injection, schedule: Q01DX001 (ip), vehicle: saline) was 0 of 6 and the survivor count [2] was 0 of 6.

In the case of `CC(=O)Nc1c(Cl)c(Cl)c2c(c1Cl)Cc1cc(Br)ccc1-2`, the survivor count (T/C endpoint: mean survival time, dose: 50.0 mg/kg/injection, schedule: Q01DX009 (ip), vehicle: Klucel (hydroxypropylcellulose) (HPC)) is reported as 1 of 6 and the survivor count (T/C endpoint: mean survival time, dose: 100.0 mg/kg/injection, schedule: Q01DX009 (ip), vehicle: Klucel (hydroxypropylcellulose) (HPC)) is reported as 0 of 6.

For `CCCCCCCCCCCCCCCCOc1ccc(C(C)=O)cc1`, the survivor count [3] was 6 of 6.

In the case of `CCc1ccc(C2=C(O)C(=O)C(c3ccccc3)=C(O)C2=O)cc1`, the survivor count (T/C endpoint: mean survival time, dose: 110.0 mg/kg/injection, schedule: Q01DX009 (ip), vehicle: acetone) is reported as 0 of 6, the survivor count (T/C endpoint: mean survival time, dose: 170.0 mg/kg/injection, schedule: Q01DX009 (ip), vehicle: acetone) is reported as 0 of 6 and the survivor count (T/C endpoint: mean survival time, dose: 225.0 mg/kg/injection, schedule: Q01DX009 (ip), vehicle: acetone) is reported as 0 of 6.

For `O=C(O)c1ccccc1C(=O)Nc1cc(C(F)(F)F)ccc1Cl`, the survivor count [4] was 2 of 6.

In the case of `O=c1[nH]ccc2occc12`, the survivor count [5] is reported as 2 of 6 and the survivor count [6] is reported as 2 of 6.

For `COC(=O)C(N)Cc1ccc(O)c(O)c1` (configuration not stated), the T/C (T/C endpoint: mean survival time, dose: 800.0 mg/kg/injection, schedule: Q01DX009 (ip), vehicle: saline) was 125 % of control [4 of 6 alive].

For `NCCCCC1(CCCCN)OCCO1`, the survivor count [1] was 2 of 6, the survivor count (T/C endpoint: mean survival time, dose: 100.0 mg/kg/injection, schedule: Q04DX002 (ip), vehicle: saline) was 0 of 3 and the survivor count (T/C endpoint: mean survival time, dose: 200.0 mg/kg/injection, schedule: Q01DX001 (ip), vehicle: saline with Tween-80) was 0 of 6. For the same molecule, the survivor count (T/C endpoint: mean survival time, dose: 400.0 mg/kg/injection, schedule: Q01DX001 (ip), vehicle: saline with Tween-80) was 0 of 6.

`C=C1C(O)C2(O)OCC34C(CC5C(C)=CC(=O)C(O)C5(C)C23)OC(=O)C(OC(=O)C/C=C/CCCCCCCC)C14` (configuration not stated) was tested, and the T/C (T/C endpoint: median survival time, dose: 4.0 mg/kg/injection, schedule: Q01DX005 (ip), vehicle: saline + alcohol) was 125 % of control, the T/C (T/C endpoint: median survival time, dose: 16.0 mg/kg/injection, schedule: Q01DX005 (ip), vehicle: saline + alcohol) was 125 [5 of 6 alive] and 137 % of control [5 of 6 alive] and the survivor count (T/C endpoint: median survival time, dose: 32.0 mg/kg/injection, schedule: Q01DX005 (ip), vehicle: saline + alcohol) was 0 of 6 and 2 of 6. The survivor count (T/C endpoint: median survival time, dose: 64.0 mg/kg/injection, schedule: Q01DX005 (ip), vehicle: saline + alcohol) was 0 of 6.

With `O=C1c2cccc3c2C2(O)c4c1cccc4C(=O)c1cccc(c12)C3=O` the survivor count (T/C endpoint: mean survival time, dose: 300.0 mg/kg/injection, schedule: Q01DX009 (ip), vehicle: saline with Tween-80) was 0 of 6.

For `CN(C)C(=O)/N=N/C(=O)N(C)C`, the survivor count (T/C endpoint: mean survival time, dose: 200.0 mg/kg/injection, schedule: Q01DX001 (ip), vehicle: saline) was 2 of 6 and the survivor count (T/C endpoint: mean survival time, dose: 400.0 mg/kg/injection, schedule: Q01DX001 (ip), vehicle: saline) was 0 of 6.

In the case of `c1ccc2c([Si](O[Si](c3cccc4ccccc34)C3CCCCC3)C3CCCCC3)cccc2c1`, the survivor count [6] is reported as 6 of 6.

`Cc1cc(S(=O)(=O)F)cc(Cl)c1S` was tested, and the survivor count (T/C endpoint: mean survival time, dose: 200.0 mg/kg/injection, schedule: Q04DX002 (ip), vehicle: saline with Tween-80) was 1 of 3 and the survivor count [7] was 0 of 3.

In the case of `S=c1nc[nH]c2nncnc12`, the survivor count (T/C endpoint: mean survival time, dose: 100.0 mg/kg/injection, schedule: Q01DX001 (ip), vehicle: other) is reported as 0 of 6, the survivor count (T/C endpoint: mean survival time, dose: 200.0 mg/kg/injection, schedule: Q01DX001 (ip), vehicle: other) is reported as 0 of 6 and the survivor count (T/C endpoint: mean survival time, dose: 400.0 mg/kg/injection, schedule: Q01DX001 (ip), vehicle: other) is reported as 0 of 6.

With `O=S(c1cc(Cl)ccc1O)c1cc(Cl)ccc1O` the survivor count [6] was 1 of 6.

With `CC(=O)N(C1=CC(=O)c2ccccc2C1=O)c1ccc(C)cc1` the survivor count [2] was 2 of 6.

For `Nc1nc(OCc2ccccc2)ncc1C(=O)NC(CO)C(=O)O` (configuration not stated), the survivor count [3] was 2 of 6, the survivor count [5] was 1 of 6 and the survivor count [4] was 0 of 6.

For `Cn1cc(NC(=O)c2cc(NC(=O)c3cc(NC=O)cn3C)cn2C)cc1C(=O)NCCC(=N)N`, the survivor count (T/C endpoint: mean survival time, dose: 400.0 mg/kg/injection, schedule: Q04DX003 (ip), vehicle: alcohol) was 3 of 6 and the survivor count (T/C endpoint: median survival time, dose: 200.0 mg/kg/injection, schedule: Q01DX009 (ip), vehicle: water) was 2 of 6.

`C1CC2(CCC13CO3)CO2` (configuration not stated) was tested, and the T/C [7] was 134 % of control.

For `CC(C)(C)N1CC(C(O)(c2ccccc2)c2ccccc2)C1`, the survivor count (T/C endpoint: mean survival time, dose: 100.0 mg/kg/injection, schedule: Q01DX001 (ip), vehicle: saline with Tween-80) was 0 of 6.

In the case of `Nc1nc2ccc(NCc3ccc(C(=O)NC(CCC(=O)O)C(=O)O)cc3)cc2c(=O)[nH]1` (configuration not stated), the T/C (T/C endpoint: median survival time, dose: 50.0 mg/kg/injection, schedule: Q01DX009 (ip), vehicle: saline with Tween-80) is reported as 140 and 145 % of control and the survivor count (T/C endpoint: median survival time, dose: 200.0 mg/kg/injection, schedule: Q01DX009 (ip), vehicle: saline with Tween-80) is reported as 0 of 6.

For `Cc1ncc(CNC(=O)N(CCCl)N=O)c(N)n1`, the T/C (T/C endpoint: mean survival time, dose: 25.0 mg/kg/injection, schedule: Q01DX009 (ip), vehicle: saline) was 133 % of control, the T/C (T/C endpoint: mean survival time, dose: 50.0 mg/kg/injection, schedule: Q01DX009 (ip), vehicle: saline with Tween-80) was 133 % of control and the survivor count (T/C endpoint: mean survival time, dose: 50.0 mg/kg/injection, schedule: Q01DX009 (ip), vehicle: saline) was 6 of 6. For the same molecule, the survivor count (T/C endpoint: mean survival time, dose: 70.0 mg/kg/injection, schedule: Q04DX002 (ip), vehicle: saline) was 3 of 3.

In the case of `c1ccc(C(c2ccccc2)C(c2ccccc2)c2ccccc2)cc1`, the survivor count (T/C endpoint: mean survival time, dose: 75.0 mg/kg/injection, schedule: Q01DX009 (ip), vehicle: saline with Tween-80) is reported as 6 of 6.
